{
  "source": "patent EP0728012B1",
  "about": "(Lovas, Sandor, priority 1994, dated 1996)",
  "experiment": "general procedure: Boc solid-phase peptide synthesis; benzhydrylamine (BHA) resin, 0.65 milliequivalent/g; DIC/HOBt; BOP reagent for bulky amino acids; symmetric anhydride for recoupling",
  "settings": "whole synthesis",
  "key": {"[1]": {"settings": "scale of the general procedure 0.5 mmol of BHA resin"}},
  "note": "Some peptides are written in HELM: one residue between dots, names in brackets for other building blocks, links after the first $.",
  "data": [
    {"substance": "PEPTIDE1{[Glp].H.W.S.[KFmoc].D.W.K.P.G.[am]}$$$$V2.0", "values": [
      {"measurement": "crude purity (method not given)", "setting": "[1]", "value": 85, "unit": "%"}
    ]},
    {"substance": "Lys^5[Lys(εFmoc)]^8-GnRH-III", "values": [
      {"measurement": "crude purity (method not given)", "setting": "[1]", "value": "about 80%"}
    ]},
    {"substance": "PEPTIDE1{[Glp].H.W.S.K.[xdW].L.R.P.G.[am]}$$$$V2.0", "values": [
      {"measurement": "isolated mass", "setting": "scale 0.5 mmol", "value": 52, "unit": "mg"}
    ]},
    {"substance": "Lys^4[Lys(ε-Fmoc)]^8-GnRH-III", "values": [
      {"measurement": "crude mass", "setting": "scale 1 mmol", "value": 1.04, "unit": "g"},
      {"measurement": "crude purity (method not given)", "setting": "scale 1 mmol", "value": 80, "unit": "%"}
    ]}
  ]
}
